Laboratory results: publication PMC7862700
The entries are a selection whose mix differs from that of the whole data set. At the low end of the ranking the order means little.

Sequences of proteins named here, by UniProt entry; tags and fusion partners are left off. A change or cut given only in a name is not applied to a line headed by its entry.
UniProt Q99607: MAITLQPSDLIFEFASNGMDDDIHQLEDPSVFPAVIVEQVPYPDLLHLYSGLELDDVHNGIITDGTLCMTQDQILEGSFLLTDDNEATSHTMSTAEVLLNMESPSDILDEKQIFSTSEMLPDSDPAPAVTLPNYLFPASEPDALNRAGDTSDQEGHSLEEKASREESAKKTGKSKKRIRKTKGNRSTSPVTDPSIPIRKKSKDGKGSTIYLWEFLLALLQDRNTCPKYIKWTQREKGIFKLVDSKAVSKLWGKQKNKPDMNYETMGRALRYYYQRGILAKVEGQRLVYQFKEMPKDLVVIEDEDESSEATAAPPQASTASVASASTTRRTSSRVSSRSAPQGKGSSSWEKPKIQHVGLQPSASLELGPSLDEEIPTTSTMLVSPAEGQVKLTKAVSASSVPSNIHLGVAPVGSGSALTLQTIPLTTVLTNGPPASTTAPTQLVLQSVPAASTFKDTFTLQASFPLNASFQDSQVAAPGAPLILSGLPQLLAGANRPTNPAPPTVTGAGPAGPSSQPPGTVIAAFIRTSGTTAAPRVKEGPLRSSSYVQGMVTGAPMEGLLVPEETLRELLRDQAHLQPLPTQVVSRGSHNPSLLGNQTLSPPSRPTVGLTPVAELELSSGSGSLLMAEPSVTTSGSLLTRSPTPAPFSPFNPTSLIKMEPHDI
UniProt Q01892: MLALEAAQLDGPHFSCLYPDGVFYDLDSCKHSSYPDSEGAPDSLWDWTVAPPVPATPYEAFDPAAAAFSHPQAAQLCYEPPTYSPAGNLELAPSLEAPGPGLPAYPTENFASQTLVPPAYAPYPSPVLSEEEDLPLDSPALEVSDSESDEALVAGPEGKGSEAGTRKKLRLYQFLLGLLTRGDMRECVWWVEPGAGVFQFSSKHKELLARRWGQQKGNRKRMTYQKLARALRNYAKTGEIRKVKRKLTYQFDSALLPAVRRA

Experiments:
Experiment in all cases: DAPPL (digital affinity profiling via proximity ligation, sequencing)
Conditions in all cases: 10 mM Tris-HCl pH 7.5, 50 mM NaCl, 1 mM DTT, 4% glycerol, room temperature, 30 min; GST-TFs on glutathione beads, 16-mer random dsDNA library, 0.1% …; high values mean tight binding; double strand, one strand shown; scale: fold enrichment (6-mer frequency, TF over GST control)
EHF = target: T1, EHF (UniProt Q9NZC4)
T1 sequence: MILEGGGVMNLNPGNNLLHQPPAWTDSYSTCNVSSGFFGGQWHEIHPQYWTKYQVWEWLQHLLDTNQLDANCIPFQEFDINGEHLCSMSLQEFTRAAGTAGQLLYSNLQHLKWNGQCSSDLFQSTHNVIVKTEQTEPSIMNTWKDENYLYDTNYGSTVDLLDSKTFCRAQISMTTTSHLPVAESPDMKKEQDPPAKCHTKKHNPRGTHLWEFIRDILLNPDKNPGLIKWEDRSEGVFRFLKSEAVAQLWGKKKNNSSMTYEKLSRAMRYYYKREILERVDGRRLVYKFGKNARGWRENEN

ELF4 = ELF4 (UniProt Q99607)
ETV2 = target: T2, ETV2 (UniProt O00321)
T2 sequence: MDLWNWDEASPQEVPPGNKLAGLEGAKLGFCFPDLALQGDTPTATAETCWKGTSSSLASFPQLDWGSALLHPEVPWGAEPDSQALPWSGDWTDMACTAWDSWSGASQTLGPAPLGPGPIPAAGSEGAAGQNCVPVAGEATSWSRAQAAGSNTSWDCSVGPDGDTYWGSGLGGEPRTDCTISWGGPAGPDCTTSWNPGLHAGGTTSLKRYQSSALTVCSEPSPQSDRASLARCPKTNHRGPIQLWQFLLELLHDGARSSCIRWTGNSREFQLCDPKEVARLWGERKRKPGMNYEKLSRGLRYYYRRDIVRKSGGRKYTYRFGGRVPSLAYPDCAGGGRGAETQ

ETV3L = target: T3, ETV3L (UniProt Q6ZN32)
T3 sequence: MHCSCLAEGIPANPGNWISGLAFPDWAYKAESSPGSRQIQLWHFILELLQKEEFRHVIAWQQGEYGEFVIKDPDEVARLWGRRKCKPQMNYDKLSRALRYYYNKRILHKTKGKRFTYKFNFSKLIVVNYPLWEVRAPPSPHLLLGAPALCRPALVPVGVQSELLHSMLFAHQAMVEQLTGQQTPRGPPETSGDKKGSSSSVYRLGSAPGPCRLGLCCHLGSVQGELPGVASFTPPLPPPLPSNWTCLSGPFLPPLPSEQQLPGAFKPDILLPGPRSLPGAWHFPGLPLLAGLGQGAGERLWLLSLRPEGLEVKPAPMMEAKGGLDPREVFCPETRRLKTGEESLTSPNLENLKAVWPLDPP

SPIB = SPIB (UniProt Q01892)

## TCACAC
EHF
  binding signal: 1.3
ELF4
  binding signal: 1.36
ETV2
  binding signal: 1.29

## AATTCA
ELF4
  binding signal: 1.33
ETV2
  binding signal: 1.36
ETV3L
  binding signal: 1.35

## CTTTCT
ELF4
  binding signal: 1.48
ETV3L
  binding signal: 1.5

## AAGTAA
ELF4
  binding signal: 1.27
ETV3L
  binding signal: 1.31

## TAAAAG
ELF4
  binding signal: 1.17
ETV3L
  binding signal: 1.1

## TAATGA
EHF
  binding signal: 1.2
ELF4
  binding signal: 1.17
ETV2
  binding signal: 1.13

## ATAAAC
SPIB
  binding signal: 1.19
ELF4
  binding signal: 1.16
ETV2
  binding signal: 1.19

## TTGATA
ELF4
  binding signal: 1.29
ETV3L
  binding signal: 1.27

## TGGTAC
ELF4
  binding signal: 1.08
ETV3L
  binding signal: 1.21

## TTCTTT
ELF4
  binding signal: 1.28
ETV3L
  binding signal: 1.27

## TCCTTT
SPIB
  binding signal: 1.67
ELF4
  binding signal: 1.77
ETV2
  binding signal: 1.47
ETV3L
  binding signal: 1.85

## ACTCCT
ELF4
  binding signal: 1.59
ETV2
  binding signal: 1.38
ETV3L
  binding signal: 1.54

## TTAAGC
EHF
  binding signal: 1.13
ELF4
  binding signal: 1.22
ETV2
  binding signal: 1.03
ETV3L
  binding signal: 1.22

## GTTCTT
ELF4
  binding signal: 1.18
ETV3L
  binding signal: 1.28

## ATACAA
ELF4
  binding signal: 1.17
ETV2
  binding signal: 1.04
ETV3L
  binding signal: 1.12

## ATCTCC
ELF4
  binding signal: 1.57
ETV3L
  binding signal: 1.46

## TGCTTT
EHF
  binding signal: 1.04
ELF4
  binding signal: 1.14
ETV2
  binding signal: 1.12

## CTTTAA
ELF4
  binding signal: 1.26
ETV3L
  binding signal: 1.34

## GCTATA
EHF
  binding signal: 1.16
SPIB
  binding signal: 1.25
ELF4
  binding signal: 1.14
ETV2
  binding signal: 1.2
ETV3L
  binding signal: 1.08

## TACTGA
SPIB
  binding signal: 0.848
ELF4
  binding signal: 1.11
ETV2
  binding signal: 1.12

## CCTAGA
EHF
  binding signal: 0.923
SPIB
  binding signal: 0.964
ELF4
  binding signal: 0.996
ETV2
  binding signal: 0.861
ETV3L
  binding signal: 0.942

## GAACCC
ELF4
  binding signal: 1.22
ETV2
  binding signal: 1
ETV3L
  binding signal: 1.19

## ATGGAT
ELF4
  binding signal: 1.11
ETV3L
  binding signal: 1.16

## AATTGC
ELF4
  binding signal: 1.36
ETV3L
  binding signal: 1.35

## ACCGAT
ELF4
  binding signal: 1.24
ETV3L
  binding signal: 1.11

## ACTTTA
EHF
  binding signal: 1.2
SPIB
  binding signal: 1.19
ELF4
  binding signal: 1.23
ETV2
  binding signal: 1.26

## AAATTG
ELF4
  binding signal: 1.27
ETV3L
  binding signal: 1.29

## AACGTT
EHF
  binding signal: 1.09
ELF4
  binding signal: 1.14
ETV2
  binding signal: 0.972

## CATCTG
ELF4
  binding signal: 1.25
ETV3L
  binding signal: 1.23

## CCCTTT
EHF
  binding signal: 1.35
SPIB
  binding signal: 1.49
ELF4
  binding signal: 1.49
ETV2
  binding signal: 1.33

## TACTCG
ELF4
  binding signal: 1.22
ETV3L
  binding signal: 1.27

## AAGAAA
ELF4
  binding signal: 1.19
ETV3L
  binding signal: 1.26

## GATTCT
EHF
  binding signal: 1.26
ELF4
  binding signal: 1.19
ETV2
  binding signal: 1.15

## TGGATG
EHF
  binding signal: 1.5
ELF4
  binding signal: 1.49
ETV2
  binding signal: 1.49

## TCCTAC
EHF
  binding signal: 1.45
ELF4
  binding signal: 1.41
ETV2
  binding signal: 1.59

## AAATGA
ELF4
  binding signal: 1.29
ETV3L
  binding signal: 1.29

## ATGCAA
EHF
  binding signal: 1.25
SPIB
  binding signal: 1.26
ELF4
  binding signal: 1.25
ETV2
  binding signal: 1.26

## TTCCGT
EHF
  binding signal: 2
ELF4
  binding signal: 1.67
ETV2
  binding signal: 1.88

## TCAACC
EHF
  binding signal: 1.15
SPIB
  binding signal: 1.17
ELF4
  binding signal: 1.19

## AAATGG
EHF
  binding signal: 1.55
SPIB
  binding signal: 1.43
ELF4
  binding signal: 1.49
ETV3L
  binding signal: 1.54

## AAAACA
EHF
  binding signal: 1.31
ELF4
  binding signal: 1.39

## ATTGAT
SPIB
  binding signal: 1.16
ELF4
  binding signal: 1.32

## TGTACT
EHF
  binding signal: 1.3
ELF4
  binding signal: 1.29

## GAATAC
EHF
  binding signal: 0.999
SPIB
  binding signal: 0.984
ELF4
  binding signal: 1.01

## CGACTA
SPIB
  binding signal: 1.32
ELF4
  binding signal: 1.48

## AAAAGT
EHF
  binding signal: 1.1
ELF4
  binding signal: 1.1

## TTTAGC
EHF
  binding signal: 1.12
ELF4
  binding signal: 1.2

## GCTCCA
EHF
  binding signal: 1.19
ELF4
  binding signal: 1.22

## TACCAA
EHF
  binding signal: 1.13
SPIB
  binding signal: 1.13
ELF4
  binding signal: 1.2

## CTATGA
SPIB
  binding signal: 1.13
ELF4
  binding signal: 1.1
ETV3L
  binding signal: 0.981

## TAAGGT
SPIB
  binding signal: 1.07
ELF4
  binding signal: 1.19
ETV3L
  binding signal: 0.991

## TTCCAG
EHF
  binding signal: 0.999
ELF4
  binding signal: 1.17

## ATGGAC
EHF
  binding signal: 1.21
ELF4
  binding signal: 1.2
ETV3L
  binding signal: 1.21

## ACTACT
EHF
  binding signal: 1.34
ELF4
  binding signal: 1.22

## CATTCC
EHF
  binding signal: 1.19
ELF4
  binding signal: 1.27

## TCGCTC
EHF
  binding signal: 1.19
ELF4
  binding signal: 1.31

## ACTACC
EHF
  binding signal: 1.51
ELF4
  binding signal: 1.66

## ACTTAT
EHF
  binding signal: 1.41
SPIB
  binding signal: 1.38
ELF4
  binding signal: 1.35

## ACCGAC
EHF
  binding signal: 1.23
ELF4
  binding signal: 1.31
ETV3L
  binding signal: 1.44

## ATCTTT
EHF
  binding signal: 1.27
ELF4
  binding signal: 1.22

## AACAAA
EHF
  binding signal: 1.17
ELF4
  binding signal: 1.16

## AACATC
EHF
  binding signal: 1.51
ELF4
  binding signal: 1.41

## CTTTCA
EHF
  binding signal: 1.3
SPIB
  binding signal: 1.28
ELF4
  binding signal: 1.44

## AATGAG
EHF
  binding signal: 1.18
SPIB
  binding signal: 1.08
ELF4
  binding signal: 1.14

## GCTCAA
SPIB
  binding signal: 1.1
ELF4
  binding signal: 1.16

## GATCCT
SPIB
  binding signal: 1.33
ELF4
  binding signal: 1.35

## TTGTCT
EHF
  binding signal: 1.18
ELF4
  binding signal: 1.18

## ATCTAA
EHF
  binding signal: 1.23
ELF4
  binding signal: 1.23

## CCATTT
SPIB
  binding signal: 1.37
ELF4
  binding signal: 1.32
ETV3L
  binding signal: 1.25

## TTTCTC
EHF
  binding signal: 1.59
ELF4
  binding signal: 1.6

## CGTAAT
EHF
  binding signal: 1.13
ELF4
  binding signal: 1.22

## CTCACT
EHF
  binding signal: 1.56
ELF4
  binding signal: 1.53
ETV3L
  binding signal: 1.52

## TGATCT
EHF
  binding signal: 1.22
ELF4
  binding signal: 1.16
ETV3L
  binding signal: 1.1

## CGATCG
EHF
  binding signal: 1.07
SPIB
  binding signal: 1.03
ELF4
  binding signal: 1.04

## TCCATC
SPIB
  binding signal: 1.16
ELF4
  binding signal: 1.13

## GAACTC
EHF
  binding signal: 1.28
SPIB
  binding signal: 1.28
ELF4
  binding signal: 1.26

## TATCCT
SPIB
  binding signal: 1.8
ELF4
  binding signal: 1.65

## TAGTAC
SPIB
  binding signal: 1.06
ELF4
  binding signal: 1.15

## CCTGGA
SPIB
  binding signal: 1.5
ELF4
  binding signal: 1.47

## TTGCGC
SPIB
  binding signal: 0.996
ELF4
  binding signal: 1.06

## TTTTGT
ETV2
  binding signal: 1.28

## TGTGAC
ETV2
  binding signal: 1.09

## ATTCCG
SPIB
  binding signal: 1.78
ELF4
  binding signal: 1.61

## TGCCTG
ETV2
  binding signal: 1.2

## ATAGCT
SPIB
  binding signal: 1.09
ELF4
  binding signal: 1.07

## CTGACT
ETV2
  binding signal: 1.48

## TACTTG
ETV2
  binding signal: 1.46

## TACAAG
SPIB
  binding signal: 0.974
ELF4
  binding signal: 1.1

## CGCCGA
ETV2
  binding signal: 1.16

## AATGGG
SPIB
  binding signal: 1.22
ELF4
  binding signal: 1.16

## ACCCGC
SPIB
  binding signal: 1.27
ELF4
  binding signal: 1.35

## GCCAAT
ETV2
  binding signal: 0.98

## CTCTCA
SPIB
  binding signal: 1.44
ELF4
  binding signal: 1.42

## CGTTAA
SPIB
  binding signal: 1.13
ELF4
  binding signal: 1.12

## GTCCAC
ETV2
  binding signal: 1.14

## AATGGC
ETV2
  binding signal: 1.26

## AAGAAT
ETV2
  binding signal: 1.12

## TCCTCC
SPIB
  binding signal: 1.6
ELF4
  binding signal: 1.62

## GTAAAC
ETV2
  binding signal: 1.15

## AGAAAT
ETV2
  binding signal: 1.19

## CTCCTT
SPIB
  binding signal: 1.82
ELF4
  binding signal: 1.8
